Patent US20260193363A1

Columns and labels:
[1] = target: EGFRvIII extracellular domain, His-tagged (human); experiment: ELISA, purified antibody at 5 ng/ml on His-tagged ECD, OD450
[2] = target: EGFRvIII extracellular domain, His-tagged (human); experiment: ELISA, hybridoma supernatant on His-tagged ECD on nickel-coated 96-well plate, OD450
[3] = target: EGFRvIII extracellular domain, His-tagged (human); experiment: ELISA with purified antibody at 5 ng/ml

Measured: binding

B1: monoclonal antibody 1D9 (antibody, V domains shown)
VH: QVQLKQSGRSLVQPSQSLSITCTVSGFSLTDYGVHWIRQSPGKGLEWLGVIWRSGRTDYNAVFMSRLSITKDNSKSQVFFKMNGLQTDDTAIYYCAKNGPFGNFAGYWGQGTPVAVSA
VL: DIVMSQSPSSLAVSVGEKVTMRCRSSQSLLDSYHQKNYLAWYLQKPGQSPKLLIYWASTRESGVPDRFTGSGSGTDFTLTISSVKAEDLAVYYCQEYYRYPYTFGGGTKLEIK
binds: all assays above

B2: monoclonal antibody 3D10 (antibody, V domains shown)
VH: QVQLKQSGPGLVQPSQSLSIICTVSGFSLTRNGVHWVRQSPGKGLEWVGVIWRSGRTDYDAAFMSRLSITKDNSKSQVFFKMNSLQADDTAIYYCVKNGDDGNYGTYWGQGTLVTVSA
VL: DIVMSQSPSSLGVSVGEKVTMSCKSSQSLLDSRNQKNYLAWYQQKPGQSPKLLIYWASTRESGVPDRFTGSGSGTEFTLTISSVKAEDLAIYYCQQYYNYPYTFGGGTKLEIT
binds: all assays above

B3: monoclonal antibody 4A4 (antibody, V domains shown)
VH: QVQLKQSGRSLVQPSQSLSITCTVSGFSLTDYGVHWIRQSPGKGLEWLGVIWRSGRTDYNAVFMSRLSITKDNSKSQVFFKMNGLLIEDTAIYYCAKNGPFGNFAGYWGQGTPVAVSA
VL: DIVMSQSPSSLAVSVGEKVTMRCRSSQSLLDSYHQKNYLAWYLQKPGQSPKLLIYWASTRESGVPDRFTGSGSGTDFTLTISSVKAEDLAAYYCQEYYRYPYTFGGGTKLEIK
binds: all assays above

B4: monoclonal antibody 9G11 (antibody, V domains shown)
VH: QVQLKQSGPGLVQPSQSLSITCTVSGFSLTRNGVHWVRQSPGKGLEWVGVIWRGGRTDYDAAFMSRLSITKDNSKSQVFFKMNSLQADDTAIYYCVKNGDDGNYGTYWGQGTLVTVSA
VL: DIVMSQSPSSLGVSVGEKVTMSCKSSQSLLDSRNQKNYLAWYQQKPGQSPKLLIYWASTRESGVPDRFTGSGSGTEFTLTISSVKAEDLAIYYCQQYYNYPYTFGGGTKLEIT
binds: all assays above

B5: monoclonal antibody 11E11 (antibody, V domains shown)
VH: QVQLKQSGPSLVQPSQSLSITCTVSGFSLTNYGVHWIRQSPGKGLEWLGVKWRGGRTDYNAAFMSRLSITRDNSRSQVFFKMNSLQTDDTAIYYCAKNGPFGNFAGYWGQGTLVTVSA
VL: DIVMSQSPSSLAVSVGEKVSLTCKSSQSLLDNQKHYLAWYQQKPGQSPKLLIYWASTRESGVPDRFTGSGSGTEFTLTISSVKAEDLAVYYCQQFYNYPYTFGGGTKLEIK
binds: all assays above

These are yes or no findings as the source states them, for the method shown. Binding can be weak; no strength is given.
